Experimental findings from patent US20020037903A1, “Use of pyrimidine endothelin antagonists in companion animals” (priority 2000, published 2002) are described below.

For the series the following is noted: dog, in vivo.

In the case of `COc1ccccc1Oc1c(NS(=O)(=O)C=Cc2ccccc2)nc(-c2ncccn2)nc1OC` [COMPOUND Y, N-[6-methoxy-5-(2-methoxyphenoxy)-2-(2-pyrimidinyl)-4-pyrimidinyl]-2-phenylethensulphonamide], the “% of Kb at 24 hours following 0.5 mg/kg i.v. dose” value was 260%.
